Primary screen of a compound library

Protein sequences, listed by entry. Tags and fused reporters are not part of them. Residues count along the entry.
UniProt I6X8D2, whole entry: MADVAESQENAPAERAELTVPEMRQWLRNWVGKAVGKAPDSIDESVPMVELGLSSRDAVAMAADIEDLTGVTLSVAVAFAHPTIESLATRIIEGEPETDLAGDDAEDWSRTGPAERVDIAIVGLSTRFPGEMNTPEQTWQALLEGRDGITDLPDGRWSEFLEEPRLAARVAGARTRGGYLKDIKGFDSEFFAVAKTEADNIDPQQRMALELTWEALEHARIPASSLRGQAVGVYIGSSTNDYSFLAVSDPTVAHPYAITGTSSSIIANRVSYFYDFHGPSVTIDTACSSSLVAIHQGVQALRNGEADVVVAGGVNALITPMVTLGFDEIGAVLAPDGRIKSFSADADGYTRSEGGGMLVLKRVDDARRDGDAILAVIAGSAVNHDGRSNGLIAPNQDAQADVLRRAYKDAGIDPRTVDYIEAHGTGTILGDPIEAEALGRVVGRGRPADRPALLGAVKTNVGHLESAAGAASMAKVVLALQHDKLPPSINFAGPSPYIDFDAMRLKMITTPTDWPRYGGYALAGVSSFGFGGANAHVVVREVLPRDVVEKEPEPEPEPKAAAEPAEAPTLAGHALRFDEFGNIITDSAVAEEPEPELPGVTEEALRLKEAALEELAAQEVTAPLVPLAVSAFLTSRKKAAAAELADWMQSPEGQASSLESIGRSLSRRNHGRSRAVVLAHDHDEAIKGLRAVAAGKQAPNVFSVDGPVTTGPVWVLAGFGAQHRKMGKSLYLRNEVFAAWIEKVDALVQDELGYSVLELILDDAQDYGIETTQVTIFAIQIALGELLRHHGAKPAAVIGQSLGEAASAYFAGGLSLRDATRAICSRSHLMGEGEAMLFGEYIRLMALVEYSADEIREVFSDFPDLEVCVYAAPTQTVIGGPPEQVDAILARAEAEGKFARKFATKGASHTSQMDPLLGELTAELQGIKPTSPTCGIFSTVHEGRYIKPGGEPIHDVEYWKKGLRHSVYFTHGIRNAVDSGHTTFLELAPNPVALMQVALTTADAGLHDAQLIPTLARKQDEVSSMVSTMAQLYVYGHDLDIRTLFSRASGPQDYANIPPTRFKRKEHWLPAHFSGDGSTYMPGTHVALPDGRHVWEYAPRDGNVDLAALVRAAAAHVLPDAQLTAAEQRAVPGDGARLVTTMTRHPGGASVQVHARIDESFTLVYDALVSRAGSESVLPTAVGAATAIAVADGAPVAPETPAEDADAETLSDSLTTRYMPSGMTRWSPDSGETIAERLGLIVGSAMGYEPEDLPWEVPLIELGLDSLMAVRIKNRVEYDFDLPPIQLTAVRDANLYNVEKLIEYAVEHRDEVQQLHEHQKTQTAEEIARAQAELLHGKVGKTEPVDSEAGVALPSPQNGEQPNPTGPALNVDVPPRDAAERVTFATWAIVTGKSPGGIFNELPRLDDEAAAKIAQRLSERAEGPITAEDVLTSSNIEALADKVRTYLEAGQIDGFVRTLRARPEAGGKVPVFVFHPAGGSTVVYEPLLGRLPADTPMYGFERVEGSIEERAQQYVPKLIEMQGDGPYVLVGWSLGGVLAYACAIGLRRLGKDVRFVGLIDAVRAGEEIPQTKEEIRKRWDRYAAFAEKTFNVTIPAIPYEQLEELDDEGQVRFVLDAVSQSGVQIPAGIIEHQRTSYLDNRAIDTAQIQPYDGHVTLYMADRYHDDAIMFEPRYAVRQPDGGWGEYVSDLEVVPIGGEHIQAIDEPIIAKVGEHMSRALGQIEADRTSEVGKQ
UniProt P9WFT3, whole entry: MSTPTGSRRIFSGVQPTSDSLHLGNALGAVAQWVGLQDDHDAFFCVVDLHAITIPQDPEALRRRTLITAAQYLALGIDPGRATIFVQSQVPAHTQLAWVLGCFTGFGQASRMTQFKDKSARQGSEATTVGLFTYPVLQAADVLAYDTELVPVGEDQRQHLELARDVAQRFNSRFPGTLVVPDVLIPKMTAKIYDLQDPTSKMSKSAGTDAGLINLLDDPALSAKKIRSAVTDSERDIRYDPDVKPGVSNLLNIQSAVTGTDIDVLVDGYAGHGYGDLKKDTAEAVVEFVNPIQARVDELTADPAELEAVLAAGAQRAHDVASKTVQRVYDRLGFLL
UniProt P9WNZ1, whole entry: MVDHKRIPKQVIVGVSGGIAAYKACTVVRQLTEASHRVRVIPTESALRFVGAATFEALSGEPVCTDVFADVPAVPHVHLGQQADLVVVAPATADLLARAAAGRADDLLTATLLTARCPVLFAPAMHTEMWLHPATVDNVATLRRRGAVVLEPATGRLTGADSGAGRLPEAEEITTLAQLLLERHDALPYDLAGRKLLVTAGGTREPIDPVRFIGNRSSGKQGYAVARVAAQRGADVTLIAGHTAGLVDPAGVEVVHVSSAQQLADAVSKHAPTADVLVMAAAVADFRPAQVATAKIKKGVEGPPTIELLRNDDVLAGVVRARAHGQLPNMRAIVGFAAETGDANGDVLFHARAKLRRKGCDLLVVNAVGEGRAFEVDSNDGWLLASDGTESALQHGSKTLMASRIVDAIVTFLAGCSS
UniProt Q8IDJ8, 1-583: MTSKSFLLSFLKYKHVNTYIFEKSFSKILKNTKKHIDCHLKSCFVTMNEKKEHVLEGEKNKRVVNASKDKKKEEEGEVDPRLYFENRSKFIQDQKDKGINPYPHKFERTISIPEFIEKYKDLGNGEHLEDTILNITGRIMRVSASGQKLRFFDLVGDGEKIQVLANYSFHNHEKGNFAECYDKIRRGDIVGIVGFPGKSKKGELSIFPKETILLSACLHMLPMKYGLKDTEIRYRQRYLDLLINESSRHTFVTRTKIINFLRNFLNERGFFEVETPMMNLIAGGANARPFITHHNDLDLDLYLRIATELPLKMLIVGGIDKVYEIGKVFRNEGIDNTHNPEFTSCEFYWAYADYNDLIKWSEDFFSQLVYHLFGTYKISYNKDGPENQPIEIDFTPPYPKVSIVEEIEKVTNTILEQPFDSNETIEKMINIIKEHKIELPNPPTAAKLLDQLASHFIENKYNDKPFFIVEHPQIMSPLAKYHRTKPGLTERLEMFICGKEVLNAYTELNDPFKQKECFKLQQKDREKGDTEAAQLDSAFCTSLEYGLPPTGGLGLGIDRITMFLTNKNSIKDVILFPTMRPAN

Data taken from ChEMBL document CHEMBL3988442, “University of Dundee, Small-Polar-MMV Screening Library” (2021).

Each number is a percent effect as filed. How 0% and 100% were set is not recorded. Most values in the screen are low, and negative values occur. Compounds were drawn at random from those tested, without regard to their results. Two or more numbers in one place are separate tests of the same structure; such repeats can differ widely.

Pks13 thioesterase: 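Polyketide synthase Pks13, Mycobacterium tuberculosis (UniProt I6X8D2). Enzyme assay of the thioesterase domain of polyketide synthase 13; the read-out is not stated. Compounds at 30 µM. Higher reads as stronger inhibition (inferred from which compounds were picked for retests). Of about 67,000 compounds tested this way, about 300 (0.46%) reached 50% or more in at least one test.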
MtTrpRS: 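Enzyme assay of tryptophanyl-tRNA synthetase; the read-out is not stated. Target: Tryptophan-tRNA ligase, Mycobacterium tuberculosis (UniProt P9WFT3). Compounds at 10 µM. Higher most likely means stronger inhibition; the record gives no direction and few retests gave an IC50. Of about 65,000 compounds tested this way, about 64 (0.098%) reached 50% or more in at least one test.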
CoaBC: 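Coenzyme A biosynthesis protein CoaBC, Mycobacterium tuberculosis (UniProt P9WNZ1). Enzyme assay of CoaBC with a phosphate dye (Biomol Green) read at 650 nm. Concentration: 30 µM. Direction is inferred from only a few compounds that gave an IC50; most scored high, so higher reads as stronger inhibition. Most strong results did not repeat in a second test. About 67,000 compounds were tested under these conditions; 0.06% (about 40) showed 50% or more at least once.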
PfKRS1: 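Enzyme assay of the cytosolic lysyl-tRNA synthetase in 384-well plates, read by luminescence. Target: Lysine-tRNA ligase, Plasmodium falciparum 3D7 (UniProt Q8IDJ8). Tested at 30 µM. Higher reads as stronger inhibition, judged from the few compounds that gave an IC50. Size under these conditions: about 69,000 compounds, about 49 of them at 50% or above in at least one test.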

- O=C1Nc2ccccc2C12CCN(c1nccs1)CC2 : Pks13 thioesterase: -25.22%; MtTrpRS: -3.634%; CoaBC: -0.1287%; PfKRS1: 3.012%
- COc1cn(-c2ccccc2)nc1C(=O)NCCCN1CCCC(C)C1 (stereo not drawn) : Pks13 thioesterase: -2.969%; MtTrpRS: 1.199%; CoaBC: 4.819%; PfKRS1: 3.095%
- CNC(=O)CN1CCOCC12CCN(C(=O)c1ccc(C)cc1)CC2 : Pks13 thioesterase: -7.58%; MtTrpRS: -2.063%; CoaBC: -7.911%; PfKRS1: 8.713%
- Cc1cnn(CCNCc2ccc(C#N)cc2)c1 : Pks13 thioesterase: -16.35%; MtTrpRS: -5.418%; CoaBC: 7.846%; PfKRS1: 1.262%
- O=C(NCC1CC1)[C@H]1C[C@@H]2CCN(Cc3nccs3)C[C@@H]2O1 : Pks13 thioesterase: -42.09%; MtTrpRS: 3.923%; CoaBC: 10.03%; PfKRS1: -1.409%
- CNCC(=O)N1CC(c2cc(Nc3ncccn3)nc(C)n2)C1 : Pks13 thioesterase: -16.38%; MtTrpRS: 2.115%; CoaBC: 14.51%; PfKRS1: 6.661%
- Cc1csc(CCNCc2cnc3c(c2)c(C)nn3C)n1 : Pks13 thioesterase: -13.18%; MtTrpRS: -2.508%; CoaBC: 2.577% & 24.74%; PfKRS1: 8.587%
- CC(C)(C)NC(=O)CN1CCCNCC1 : Pks13 thioesterase: -6.022%; MtTrpRS: -1.162%; CoaBC: -28.03%; PfKRS1: 7.433%
- O=C(c1cnc(Nc2ccccc2)nc1)N1CCCC2(CCNC2)C1 (stereo not drawn) : Pks13 thioesterase: -23.17%; MtTrpRS: -0.9338%; CoaBC: -16.92%; PfKRS1: 2.875%
- CNC(=O)CN(C(=O)c1cc(C(C)C)no1)c1cccc(F)c1 : Pks13 thioesterase: -21.08%; MtTrpRS: -1.694%; CoaBC: 1.179%; PfKRS1: -5.294%
- COc1nccnc1N1CCCC2(C1)C(=O)N(C)c1ccccc12 (stereo not drawn) : Pks13 thioesterase: -42.83%; MtTrpRS: 0.9412%; CoaBC: 5.34%; PfKRS1: 3.713%
- O=C(O)CCNC(=O)N1CCc2c([nH]c3ccc(Cl)cc23)C1 : Pks13 thioesterase: -12.56%; MtTrpRS: -4.692%; CoaBC: 0.5051%; PfKRS1: -3.952%
- CNc1ncccc1CN1CCCCC1c1cc(C)n2ccnc2n1 (stereo not drawn) : Pks13 thioesterase: 0.993%; CoaBC: 0.7282%; PfKRS1: 3.014%
- N#Cc1ccc(NC2CCN(Cc3ccccn3)CC2)c(F)c1 : Pks13 thioesterase: -11.27%; MtTrpRS: 0.6583%; CoaBC: -3.444%; PfKRS1: -0.1303%
- COCCNC(=O)Nc1ccc(-c2nc(C(C)C)no2)cc1 : Pks13 thioesterase: -33.77%; MtTrpRS: -4.549%; CoaBC: 8.738%; PfKRS1: 1.412%
- CC(c1nc(C2CC2)no1)N1CCN(CCOCC(F)(F)F)CC1 (stereo not drawn) : Pks13 thioesterase: -8.062%; MtTrpRS: 1.263%; CoaBC: 3.71%; PfKRS1: 1.769%
- O=C(CS(=O)(=O)Cc1nnnn1C1CC1)NCC1CC1 : Pks13 thioesterase: -13.16%; MtTrpRS: -3.008%; CoaBC: 7.662%; PfKRS1: 4.402%
- COCC(=O)N1C[C@H]2CC[C@@]3(N=C(c4ccccc4)NC3=O)[C@H]2C1 : Pks13 thioesterase: -18.09%; MtTrpRS: -0.3255%; CoaBC: 6.515%; PfKRS1: -0.6059%
- O=C(C1CC(F)(F)C1)N1C[C@@H]2CN(CC3CCCC3)CCO[C@@H]2C1 : Pks13 thioesterase: -36%; CoaBC: 1.576%; PfKRS1: 0.3898%
- COCCC(=O)N(CCC#N)c1ccc2c(c1)OCCO2 : Pks13 thioesterase: 19.2%; MtTrpRS: -6.623%; CoaBC: 4.369%; PfKRS1: -5.379%
- COc1cc(C)cc(C(C(=O)O)N2CCN(C3CCCC3)CC2)c1OC (stereo not drawn) : Pks13 thioesterase: -3.101%; MtTrpRS: -0.4036%; CoaBC: -0.6048%; PfKRS1: 2.246%
- Cc1ccc(S(=O)(=O)Cc2nsc(N(C)C)n2)c(C)c1 : Pks13 thioesterase: -14.03%; MtTrpRS: -2.545%; CoaBC: -3.563%; PfKRS1: 8.099%

For reference, 2 entries once more:

- COCCNC(=O)Nc1ccc(-c2nc(C(C)C)no2)cc1 | Pks13 thioesterase: -33.77%; MtTrpRS: -4.549%; CoaBC: 8.738%; PfKRS1: 1.412%
- CNC(=O)CN1CCOCC12CCN(C(=O)c1ccc(C)cc1)CC2 | Pks13 thioesterase: -7.58%; MtTrpRS: -2.063%; CoaBC: -7.911%; PfKRS1: 8.713%